## Assay results

From PubChem BioAssay record AID912 (NCATS, 2007).

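Uptake of anthrax lethal toxin into cultured cells, read by FRET (460/530 nm ratio) and reported from the 460 nm channel; the cell line is not named here. Each compound was tested as a concentration series from about 0.0005 to 40 µM. The number is the fitted AC50 of the 460 nm signal alone; lower values mean a more potent effect. A falling signal goes with compounds filed as inhibitors or cytotoxic, a rising one with activators or fluorescent compounds (inferred from the filed classes).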

Values are in µM. Common to all entries: measured here: 460 nm channel. This is a side read-out of the assay, for part of the compounds, not drawn at random. A potency from a partial, single-point or poor curve is only a rough figure. The first word of each remark tells which way the curve ran; it can be opposite to the aim of the assay.

| structure | AC50 (µM) | curve as filed |
|---|---|---|
| `C=CCc1ccccc1OCCCCN1CCCC1` | 10 | falling, single point |
| `O=S(=O)(c1ccc(Oc2ccc(Br)cc2F)nc1)N1CCCCC1` | 12.59 | falling, single point |
| `COc1ccc(-c2cnc(SCC(=O)Nc3ccc4c(c3)OCO4)n2Cc2ccco2)cc1` | 19.95 | falling, partial curve |
| `O=C(COc1c(F)c(F)c(C(F)(F)F)c(F)c1F)Nc1ccc(N2CCOCC2)c(Cl)c1` | 3.162 | falling, full curve, poor fit |
| `O=C(CC1COc2ccccc2O1)NCc1ccccc1` (stereo not given) | 31.62 | rising, single point |
| `Cc1ccccc1N=C(N)Nc1ccccc1C` | 25.12 | falling, partial curve, poor fit |
| `O=C(O)c1ccc(Cn2cc(Cl)cn2)cc1` | 5.012 | falling, single point |
| `O=C(c1cnn2ccccc12)N1CCc2ccccc21` | 12.59 | rising, single point |
| `CCOc1ccc(CNc2ccc(N3CCCC3)cc2)cc1` | 0.03981 | falling, full curve, poor fit |
| `COc1ccccc1-c1cc(C(=O)Nc2cccnc2)no1` | 6.31 | falling, partial curve |
| `N#C/C(=C1/CCCCCN1)c1nc2ccccc2s1` | 0.07943 | falling, full curve |
| `Cc1cc(=O)oc2c(CN(C)Cc3ccccc3)c(O)ccc12` | 10 | rising, single point |
| `O=c1cc(-c2ccc(O)c(O)c2)oc2cccc(O)c12` | 31.62 | falling, partial curve |
| `COc1ccc(N2CCN(Cc3cc(=O)oc4cc(-c5ccccc5)c(O)cc34)CC2)cc1` | 25.12 | rising, single point |
| `COC(=O)c1cn(CCOc2ccccc2)c2ccccc12` | 15.85 | falling, partial curve |
| `c1ccc(CNc2ccnc(-c3ccoc3)n2)cc1` | 5.012 | falling, single point |
| `COc1cc(C2C(C#N)=C(C)NC3=C2C(=O)c2ccccc23)cc(OC)c1OC` (stereo not given) | 0.3162 | falling, partial curve |
| `COC[C@@H]1OC(=O)c2coc3c2[C@]1(C)C1=C(C3=O)[C@H]2CCC(=O)[C@]2(C)C[C@@H]1OC(C)=O` | 12.59 | falling, single point |
| `COC(=O)[C@@H]1C[C@H]1[C@@H](NS(=O)(=O)c1ccc(-c2ccccc2)cc1)c1ccccc1` | 12.59 | falling, partial curve |
| `O=c1c(-c2cc(F)cc(F)c2)nc2cncnc2n1Cc1ccccc1` | 10 | rising, partial curve |
| `Cc1ccc(C(c2nnnn2C(C)(C)C)N(Cc2ccco2)Cc2cccs2)cc1` (stereo not given) | 7.943 | falling, partial curve |
| `CC(C)(C)c1cc(O)ccc1O` | 0.7943 | falling, single point |
| `N[C@@H](C(=O)O)c1cc(O)ccc1Cl` | 0.001585 | rising, full curve, poor fit |
| `CO[C@H]1COC(=O)C/C=C\[C@H](C)[C@@H](NS(=O)(=O)c2ccc(C)cc2)COC(=O)C/C=C\[C@@H]1C` | 1 | rising, single point |
| `O=c1cnc2cnc(Nc3ccccc3)nc2n1Cc1ccc(F)cc1` | 25.12 | rising, single point |
| `Cn1cc(-c2nc3cnc(Oc4ccccc4)nc3n(C)c2=O)c2ccccc21` | 15.85 | rising, partial curve |
| `CCOC(=O)C1=C(c2ccccc2)N2CCN=C2S1` | 2.512 | falling, single point |
| `CN(C)c1ccc(NC(=O)c2ccc(COc3cccc(Cl)c3)o2)cc1` | 10 | falling, partial curve |
| `CS(=O)(=O)N1CCCC(C(=O)NCc2ccco2)C1` (stereo not given) | 31.62 | falling, partial curve, poor fit |
| `Nc1ncnc2c1nc(Br)n2[C@H]1O[C@H]2COP(=O)(O)O[C@H]2[C@@H]1O` | 12.59 | falling, partial curve |
| `CCCCN1CSC(=S)N(Cc2ccccc2)C1` | 0.631 | rising, single point |
| `Cn1c(SCc2nn[nH]n2)nc2c1c(=O)n(Cc1ccccc1Cl)c(=O)n2C` | 0.07943 | falling, full curve, poor fit |
| `COCCn1c(=O)c(-c2ccc(OC)cc2)nc2cnc(Oc3ccc(OC)cc3)nc21` | 12.59 | rising, single point |
| `CC(OC(=O)c1nn(C)c(=O)c2ccccc12)C(=O)NCc1ccc2c(c1)OCO2` (stereo not given) | 5.012 | rising, single point |
| `O=C(Nc1ccc2c(c1)nc1n2CCN(C2CCCCC2)C1)c1ccco1` | 12.59 | falling, partial curve |
| `O=C(c1nnc(Cc2ccc(Cl)cc2)o1)N1CCc2ccccc2C1` | 19.95 | falling, single point |
| `CCOC(=O)C1=C(c2ccccc2)Nc2ncnn2C1c1cccc(OC)c1OC` (stereo not given) | 15.85 | rising, single point |
| `CS(=O)(=O)c1ccc(Cl)c(S(=O)(=O)NCc2ccccc2)c1` | 0.01995 | falling, full curve, poor fit |
| `NCCOB(c1ccccc1)c1ccccc1` | 25.12 | falling, partial curve |
| `CC(=O)CSc1nc2ccc(Nc3nc(N4CCOCC4)nc(N4CCOCC4)n3)cc2s1` | 7.943 | falling, partial curve |
| `COC(=O)c1ccccc1NC(=O)c1ccc2c(c1)C(=O)N(Cc1ccco1)C2=O` | 12.59 | rising, single point |
| `COc1ccc(CC(=O)Nc2ccc3c(c2)CCC3)cc1S(=O)(=O)N1CCOCC1` | 0.01995 | falling, full curve, poor fit |
| `COCCNC(=O)c1c(N)sc2c1CCCC2` | 7.943 | falling, partial curve |
| `N#CCSc1nc2ccccc2c(=O)n1CCC(=O)NC1CCCCC1` | 31.62 | falling, single point |
| `Cc1cccc(C)c1NC(=O)CSc1nnc(CCCCCNC(=O)OC(C)(C)C)o1` | 0.003162 | falling, full curve |
| `CCN1CCCC(OC(=O)Nc2ccccc2)C1` (stereo not given) | 5.012 | falling, full curve |
| `CC(C)/C=C1\CCCCC1N(C)C(=O)NC(C)C` (stereo not given) | 15.85 | falling, partial curve |
| `CSc1ncnc2c1ncn2CC(=O)[C@H]1CC[C@H]2[C@H]3CCC4=CC(=O)CC[C@@]4(C)[C@@H]3CC[C@@]12C` | 5.012 | falling, single point |
| `CCOc1ccc(N(CC(=O)Nc2cccc(OC)c2)S(=O)(=O)c2c(C)noc2C)cc1` | 10 | falling, partial curve |
| `Cc1nc2c(C(=O)O)cnn2c(C)c1Cc1ccccc1F` | 0.1585 | rising, full curve, poor fit |
| `CCCCC1(C2CCCC2)Cc2cc(OCCCC(=O)O)c(Cl)c(Cl)c2C1=O` (stereo not given) | 12.59 | falling, single point |
| `CCCCCCCC/C=C\CCCCCCCC(=O)NCCc1ccc(O)c(O)c1` | 5.012 | falling, full curve |
| `O=C(Nc1cnn(C23CC4CC(CC(C4)C2)C3)c1)c1cnn2cccnc12` | 0.003162 | rising, full curve, poor fit |
| `C=CC(=O)OCCOCCOC(=O)C=C` | 10 | falling, full curve |
| `COc1ccc(N2CCN(C(=O)CSc3nnc(-c4cc5ccccc5cc4O)n3C)CC2)cc1` | 0.003981 | falling, full curve, poor fit |

Repeated from the top, 6 entries:

structure	AC50 (µM)	curve as filed
C=CCc1ccccc1OCCCCN1CCCC1	10	falling, single point
O=S(=O)(c1ccc(Oc2ccc(Br)cc2F)nc1)N1CCCCC1	12.59	falling, single point
COc1ccc(-c2cnc(SCC(=O)Nc3ccc4c(c3)OCO4)n2Cc2ccco2)cc1	19.95	falling, partial curve
O=C(COc1c(F)c(F)c(C(F)(F)F)c(F)c1F)Nc1ccc(N2CCOCC2)c(Cl)c1	3.162	falling, full curve, poor fit
O=C(CC1COc2ccccc2O1)NCc1ccccc1 (stereo not given)	31.62	rising, single point
Cc1ccccc1N=C(N)Nc1ccccc1C	25.12	falling, partial curve, poor fit